From patent publication US20080275027A1, “Piperazinone Derivatives Useful as Histamine H3 Receptor Antagonists and/or Inverse Agonists” (priority 2005, published 2008)
Some of these results come from one statement about several compounds together.

Sequences of proteins named here, by UniProt entry; tags and fusion partners are left off. A change or cut given only in a name is not applied to a line headed by its entry.
UniProt P35367, whole entry: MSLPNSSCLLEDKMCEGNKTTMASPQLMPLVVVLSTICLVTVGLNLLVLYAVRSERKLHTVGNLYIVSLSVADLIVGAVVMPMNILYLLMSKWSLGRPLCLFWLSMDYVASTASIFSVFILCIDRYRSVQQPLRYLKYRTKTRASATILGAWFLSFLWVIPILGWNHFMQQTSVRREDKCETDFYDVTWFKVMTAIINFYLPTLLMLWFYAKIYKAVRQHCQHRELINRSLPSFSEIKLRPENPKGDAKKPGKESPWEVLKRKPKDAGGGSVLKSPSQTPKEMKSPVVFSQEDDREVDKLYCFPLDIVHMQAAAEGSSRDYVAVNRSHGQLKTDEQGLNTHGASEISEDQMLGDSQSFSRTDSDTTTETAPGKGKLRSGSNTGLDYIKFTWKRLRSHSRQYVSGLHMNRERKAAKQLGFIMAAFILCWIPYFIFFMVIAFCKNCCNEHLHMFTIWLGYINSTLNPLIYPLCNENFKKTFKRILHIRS
UniProt Q9Y5N1: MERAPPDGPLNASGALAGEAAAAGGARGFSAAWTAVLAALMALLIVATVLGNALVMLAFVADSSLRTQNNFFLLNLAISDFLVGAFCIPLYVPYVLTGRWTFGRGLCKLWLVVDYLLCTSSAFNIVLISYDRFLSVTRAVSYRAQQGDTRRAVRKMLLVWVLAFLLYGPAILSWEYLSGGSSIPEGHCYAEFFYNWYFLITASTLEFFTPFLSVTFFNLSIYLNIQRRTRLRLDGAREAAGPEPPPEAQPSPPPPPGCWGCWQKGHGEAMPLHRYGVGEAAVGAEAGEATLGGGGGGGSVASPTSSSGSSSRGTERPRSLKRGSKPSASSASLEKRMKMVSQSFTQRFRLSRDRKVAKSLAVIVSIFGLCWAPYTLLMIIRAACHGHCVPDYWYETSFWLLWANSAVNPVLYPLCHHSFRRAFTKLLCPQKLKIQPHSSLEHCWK

Key:
human H1 receptor = biological target: T1, human H1 receptor (Homo sapiens, UniProt P35367); assay: Histamine H1 functional antagonist assay (FLIPR, CHO cells); type: cell-based; conditions: functional antagonism vs histamine at EC80; calcium fluorescence (FLIPR)
T1 construct: expressed in transfected cells

histamine H3 receptor = histamine H3 receptor (Homo sapiens, UniProt Q9Y5N1); assay: Histamine H3 functional antagonist assay ([35S]-GTPγS SPA, CHO K1 cell membranes); conditions: functional antagonism vs histamine at EC80; GTPγS binding

## CC1CCCN1CCCOc1ccc(N2CCN(C(=O)c3ccc(C(=O)N4CCCC4)cc3)CC2=O)cc1 (centres unmarked) [Example E107]
Human H1 receptor
  average pKi (pKb) at H1: less than 6.0
Histamine H3 receptor
  average pKi (pKb) at H3: greater than 8.0

## O=C(c1ccc(C(=O)N2CCN(c3ccc(OC4CCN(C5CCC5)CC4)cc3)C(=O)C2)cc1)N1CCOCC1 [Example E89]
Human H1 receptor
  average pKi (pKb) at H1: less than 6.0
Histamine H3 receptor
  average pKi (pKb) at H3: greater than 8.0

## CC(C)N1CCC(Oc2ccc(N3CCN(C(=O)c4cccc(S(C)(=O)=O)c4)CC3=O)cc2)CC1 [Example E76]
Human H1 receptor
  average pKi (pKb) at H1: less than 6.0
Histamine H3 receptor
  average pKi (pKb) at H3: greater than 8.0

## O=C(C1CCC1)N1CCN(c2ccc(OC3CCN(C4CCC4)CC3)cc2)C(=O)C1 [Example E2]
Human H1 receptor
  average pKi (pKb) at H1: less than 6.0
Histamine H3 receptor
  average pKi (pKb) at H3: greater than 8.0

## O=C(c1cccc2ccc(=O)[nH]c12)N1CCN(c2ccc(OCCCN3CCCC3)cc2)C(=O)C1 [Example E151]
Human H1 receptor
  average pKi (pKb) at H1: less than 6.0
Histamine H3 receptor
  average pKi (pKb) at H3: greater than 8.0

## CC1CCCN1CCCOc1ccc(N2CCN(C(=O)c3cccc(C(=O)N4CCCC4)c3)CC2=O)cc1 (centres unmarked) [Example E106]
Human H1 receptor
  average pKi (pKb) at H1: less than 6.0
Histamine H3 receptor
  average pKi (pKb) at H3: greater than 8.0

## CC(C)N1CCC(Oc2ccc(N3CCN(C(=O)c4ccc(C(=O)N5CCCC5)cc4)CC3=O)cc2)CC1 [Example E78]
Human H1 receptor
  average pKi (pKb) at H1: less than 6.0
Histamine H3 receptor
  average pKi (pKb) at H3: greater than 8.0

## COc1ccc(C(=O)N2CCN(c3ccc(OC4CCN(C5CCC5)CC4)cc3)C(=O)C2)cc1C#N [Example E48]
Human H1 receptor
  average pKi (pKb) at H1: less than 6.0
Histamine H3 receptor
  average pKi (pKb) at H3: greater than 8.0

## CS(=O)(=O)c1cccc(C(=O)N2CCN(c3ccc(OC4CCN(C5CCC5)CC4)cc3)C(=O)C2)c1 [Example E82]
Human H1 receptor
  average pKi (pKb) at H1: less than 6.0
Histamine H3 receptor
  average pKi (pKb) at H3: greater than 8.0

## CC1CCCN1CCCOc1ccc(N2CCN(C(=O)c3ccc(C(=O)N4CCC4)cc3)CC2=O)cc1 (centres unmarked) [Example E108]
Human H1 receptor
  average pKi (pKb) at H1: less than 6.0
Histamine H3 receptor
  average pKi (pKb) at H3: greater than 8.0

## CC(C)N1CCC(Oc2ccc(N3CCN(C(=O)C4(C)CCCCC4)CC3=O)cc2)CC1 [Example E27]
Human H1 receptor
  average pKi (pKb) at H1: less than 6.0
Histamine H3 receptor
  average pKi (pKb) at H3: greater than 8.0

## C[C@H]1CCCN1CCCOc1ccc(N2CCN(C(=O)c3ccc(C(=O)N4CCC4)cc3)CC2=O)cc1 [Example E128]
Human H1 receptor
  average pKi (pKb) at H1: less than 6.0
Histamine H3 receptor
  average pKi (pKb) at H3: greater than 8.0

## O=C(c1cccc(C(=O)N2CCN(c3ccc(OCCCN4CCCCCC4)cc3)C(=O)C2)c1)N1CCCC1 [Example E104]
Human H1 receptor
  average pKi (pKb) at H1: less than 6.0
Histamine H3 receptor
  average pKi (pKb) at H3: greater than 8.0

## CS(=O)(=O)c1ccc(C(=O)N2CCN(c3ccc(OCCCN4CCCC4)cc3)C(=O)C2)cc1 [Example E67]
Human H1 receptor
  average pKi (pKb) at H1: less than 6.0
Histamine H3 receptor
  average pKi (pKb) at H3: greater than 8.0

## COc1cc(C(=O)N2CCN(c3ccc(OC4CCN(C5CCC5)CC4)cc3)C(=O)C2)ccc1C [Example E8]
Human H1 receptor
  average pKi (pKb) at H1: less than 6.0
Histamine H3 receptor
  average pKi (pKb) at H3: greater than 8.0

## O=C(c1ccc(C(=O)N2CCN(c3ccc(OCCCN4CCCC4)cc3)C(=O)C2)cc1)N1CCOCC1 [Example E149]
Human H1 receptor
  average pKi (pKb) at H1: less than 6.0
Histamine H3 receptor
  average pKi (pKb) at H3: greater than 8.0

## O=C(c1ccc2ncccc2c1)N1CCN(c2ccc(OCCCN3CCCCC3)cc2)C(=O)C1 [Example E53]
Human H1 receptor
  average pKi (pKb) at H1: less than 6.0
Histamine H3 receptor
  average pKi (pKb) at H3: greater than 8.0

## C[C@@H]1CCCN1CCCOc1ccc(N2CCN(C(=O)C3CC(=O)N(C)C3)CC2=O)cc1 (some centres unmarked) [Example E161]
Human H1 receptor
  average pKi (pKb) at H1: less than 6.0
Histamine H3 receptor
  average pKi (pKb) at H3: greater than 8.0

## Cc1cc(C(=O)N2CCN(c3ccc(OCCCN4CCC[C@H]4C)cc3)C(=O)C2)n(C)n1 [Example E164]
Human H1 receptor
  average pKi (pKb) at H1: less than 6.0
Histamine H3 receptor
  average pKi (pKb) at H3: greater than 8.0

## CCc1ccc(C(=O)N2CCN(c3ccc(OCCCN4CCCCC4)cc3)C(=O)C2)cc1 [Example E16]
Human H1 receptor
  average pKi (pKb) at H1: less than 6.0
Histamine H3 receptor
  average pKi (pKb) at H3: greater than 8.0

## O=C(c1ccc(C(=O)N2CCN(c3ccc(OCCCN4CCCCCC4)cc3)C(=O)C2)cc1)N1CCCC1 [Example E103]
Human H1 receptor
  average pKi (pKb) at H1: less than 6.0
Histamine H3 receptor
  average pKi (pKb) at H3: greater than 8.0

## CC1CCCN1CCCOc1ccc(N2CCN(C(=O)c3ccc(F)c4ncccc34)CC2=O)cc1 (centres unmarked) [Example E58]
Human H1 receptor
  average pKi (pKb) at H1: less than 6.0
Histamine H3 receptor
  average pKi (pKb) at H3: greater than 8.0

## COc1ccc(C(=O)N2CCN(c3ccc(OC4CCN(C5CCC5)CC4)cc3)C(=O)C2)cc1Cl [Example E9]
Human H1 receptor
  average pKi (pKb) at H1: less than 6.0
Histamine H3 receptor
  average pKi (pKb) at H3: greater than 8.0

## O=C(c1ccc(C(=O)N2CCN(c3ccc(OCCCN4CCCCCC4)cc3)C(=O)C2)cc1)N1CCOCC1 [Example E109]
Human H1 receptor
  average pKi (pKb) at H1: less than 6.0
Histamine H3 receptor
  average pKi (pKb) at H3: greater than 8.0

## C[C@@H]1CCCN1CCCOc1ccc(N2CCN(C(=O)c3ccc(F)c(F)c3)CC2=O)cc1 [Example E168]
Human H1 receptor
  average pKi (pKb) at H1: less than 6.0
Histamine H3 receptor
  average pKi (pKb) at H3: greater than 8.0

## O=C(c1ccncc1)N1CCN(c2ccc(OC3CCN(C4CCC4)CC3)cc2)C(=O)C1 [Example E45]
Human H1 receptor
  average pKi (pKb) at H1: less than 6.0
Histamine H3 receptor
  average pKi (pKb) at H3: greater than 8.0

## Cc1cc(C(=O)N2CCN(c3ccc(OC4CCN(C5CCC5)CC4)cc3)C(=O)C2)nn1C [Example E156]
Human H1 receptor
  average pKi (pKb) at H1: less than 6.0
Histamine H3 receptor
  average pKi (pKb) at H3: greater than 8.0

## CC(C)N1CCC(Oc2ccc(N3CCN(C(=O)C4CCCC4)CC3=O)cc2)CC1 [Example E20]
Human H1 receptor
  average pKi (pKb) at H1: less than 6.0
Histamine H3 receptor
  average pKi (pKb) at H3: greater than 8.0

## COC(=O)COc1ccc(C(=O)N2CCN(c3ccc(OCCCN4CCCCC4)cc3)C(=O)C2)c2ccccc12 [Example E36]
Human H1 receptor
  average pKi (pKb) at H1: less than 6.0
Histamine H3 receptor
  average pKi (pKb) at H3: greater than 8.0

## O=C(c1ccc2ncccc2c1)N1CCN(c2ccc(OCCCN3CCCC3)cc2)C(=O)C1 [Example E65]
Human H1 receptor
  average pKi (pKb) at H1: less than 6.0
Histamine H3 receptor
  average pKi (pKb) at H3: greater than 8.0

## O=C(c1cccc(C(=O)N2CCN(c3ccc(OC4CCN(C5CCC5)CC4)cc3)C(=O)C2)c1)N1CCCC1 [Example E80]
Human H1 receptor
  average pKi (pKb) at H1: less than 6.0
Histamine H3 receptor
  average pKi (pKb) at H3: greater than 8.0

## CS(=O)(=O)c1cccc(C(=O)N2CCN(c3ccc(OCCCN4CCCC4)cc3)C(=O)C2)c1 [Example E150]
Human H1 receptor
  average pKi (pKb) at H1: less than 6.0
Histamine H3 receptor
  average pKi (pKb) at H3: greater than 8.0

## COc1cc(C#N)ccc1C(=O)N1CCN(c2ccc(OC3CCN(C4CCC4)CC3)cc2)C(=O)C1 [Example E41]
Human H1 receptor
  average pKi (pKb) at H1: less than 6.0
Histamine H3 receptor
  average pKi (pKb) at H3: greater than 8.0

## COc1cc(C#N)ccc1C(=O)N1CCN(c2ccc(OCCCN3CCCCC3)cc2)C(=O)C1 [Example E55]
Human H1 receptor
  average pKi (pKb) at H1: less than 6.0
Histamine H3 receptor
  average pKi (pKb) at H3: greater than 8.0

## O=C(c1ccc(Br)cc1)N1CCN(c2ccc(OCCCN3CCCCC3)cc2)C(=O)C1 [Example E172]
Human H1 receptor
  average pKi (pKb) at H1: less than 6.0
Histamine H3 receptor
  average pKi (pKb) at H3: greater than 8.0

## Cc1noc(C)c1C(=O)N1CCN(c2ccc(OCCCN3CCC[C@H]3C)cc2)C(=O)C1 [Example E162]
Human H1 receptor
  average pKi (pKb) at H1: less than 6.0
Histamine H3 receptor
  average pKi (pKb) at H3: greater than 8.0

## CC1CCCN1CCCOc1ccc(N2CCN(C(=O)c3cccc4ncccc34)CC2=O)cc1 (centres unmarked) [Example E121]
Human H1 receptor
  average pKi (pKb) at H1: less than 6.0
Histamine H3 receptor
  average pKi (pKb) at H3: greater than 8.0
